{"sequences": {"note": "Amino acid sequences for entries named in this document (tags omitted). A change or cut given only in a name is not applied to a line headed by its entry.", "UniProt Q9JJT9": "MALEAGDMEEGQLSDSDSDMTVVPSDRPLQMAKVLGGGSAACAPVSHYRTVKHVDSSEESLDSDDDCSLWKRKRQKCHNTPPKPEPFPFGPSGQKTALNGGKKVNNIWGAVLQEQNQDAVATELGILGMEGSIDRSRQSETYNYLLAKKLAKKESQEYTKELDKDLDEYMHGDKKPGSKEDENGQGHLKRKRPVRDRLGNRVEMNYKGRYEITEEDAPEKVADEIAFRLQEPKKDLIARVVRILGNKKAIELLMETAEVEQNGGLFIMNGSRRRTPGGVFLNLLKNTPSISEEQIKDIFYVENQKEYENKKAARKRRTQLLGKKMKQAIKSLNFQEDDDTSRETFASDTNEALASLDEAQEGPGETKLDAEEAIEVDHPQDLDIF", "UniProt Q6P5F9": "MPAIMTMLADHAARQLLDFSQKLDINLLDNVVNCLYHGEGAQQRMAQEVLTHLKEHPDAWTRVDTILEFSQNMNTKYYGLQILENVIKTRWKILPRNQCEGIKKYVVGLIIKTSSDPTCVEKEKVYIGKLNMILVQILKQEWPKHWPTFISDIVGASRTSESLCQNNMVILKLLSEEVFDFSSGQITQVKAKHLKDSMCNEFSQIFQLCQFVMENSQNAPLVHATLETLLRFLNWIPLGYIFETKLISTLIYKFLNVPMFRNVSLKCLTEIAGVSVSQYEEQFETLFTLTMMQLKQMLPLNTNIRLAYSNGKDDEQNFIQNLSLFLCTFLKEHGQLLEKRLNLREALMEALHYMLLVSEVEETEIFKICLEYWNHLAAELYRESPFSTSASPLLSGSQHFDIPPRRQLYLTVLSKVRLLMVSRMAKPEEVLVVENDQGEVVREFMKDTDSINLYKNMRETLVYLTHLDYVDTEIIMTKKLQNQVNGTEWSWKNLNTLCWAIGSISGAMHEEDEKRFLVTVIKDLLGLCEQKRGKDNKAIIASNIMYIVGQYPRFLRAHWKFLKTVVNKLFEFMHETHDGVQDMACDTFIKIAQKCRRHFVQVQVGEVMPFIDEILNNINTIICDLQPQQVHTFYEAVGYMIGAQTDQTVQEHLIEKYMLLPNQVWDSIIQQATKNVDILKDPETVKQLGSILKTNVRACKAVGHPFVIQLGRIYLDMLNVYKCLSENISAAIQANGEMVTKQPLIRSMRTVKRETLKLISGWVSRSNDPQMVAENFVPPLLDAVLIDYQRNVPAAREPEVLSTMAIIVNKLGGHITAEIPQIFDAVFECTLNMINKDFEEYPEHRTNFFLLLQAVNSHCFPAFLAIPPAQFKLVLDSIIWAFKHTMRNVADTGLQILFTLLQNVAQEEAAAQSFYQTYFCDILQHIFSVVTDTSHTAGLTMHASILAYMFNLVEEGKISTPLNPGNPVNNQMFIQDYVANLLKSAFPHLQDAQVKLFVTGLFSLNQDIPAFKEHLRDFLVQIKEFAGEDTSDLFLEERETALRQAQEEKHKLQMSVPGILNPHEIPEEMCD"}, "source": "paper PMC12350170", "about": "“Structural basis for the synergistic assembly of the snRNA export complex” (Nature Structural & Molecular Biology, 2025)", "key": {"[1]": {"target": "MYC-mTurbo-PHAX WT (mouse) (mouse) (UniProt Q9JJT9)", "assay": "proximity labelling; MYC-mTurbo-PHAX variants in HA-dTAG-PHAX mES cells; dTAG^V-1 4 h to deplete endogenous PHAX, 50 µM biotin 4 h; streptavidin beads, western blot of CBP20, CBP80, Ran, CRM1, ARS2"}, "[2]": {"target": "MYC-mTurbo-PHAX E9R (mouse) (mouse) (UniProt Q9JJT9)", "assay": "proximity labelling; MYC-mTurbo-PHAX variants in HA-dTAG-PHAX mES cells; dTAG^V-1 4 h to deplete endogenous PHAX, 50 µM biotin 4 h; streptavidin beads, western blot of CBP20, CBP80, Ran, CRM1, ARS2"}}, "note": "No constants are given. Whether binding was seen depends on the method and setting. Binding seen in cells or lysates may run through a third protein. These calls come from enrichment with a bait or labelling near it, and not all partners need be listed."}
{"substance": "Endogenous mouse CRM1 (from UniProt Q6P5F9 1-1071)", "values": [{"measurement": "binding", "setting": "[1]", "result": "binds"}, {"measurement": "binding", "setting": "[2]", "result": "binds"}]}
